# Results reported in publication PMC9935399.
# Chains of the proteins cited; added tags and fusions are not shown.
# UniProt Q9BUH6: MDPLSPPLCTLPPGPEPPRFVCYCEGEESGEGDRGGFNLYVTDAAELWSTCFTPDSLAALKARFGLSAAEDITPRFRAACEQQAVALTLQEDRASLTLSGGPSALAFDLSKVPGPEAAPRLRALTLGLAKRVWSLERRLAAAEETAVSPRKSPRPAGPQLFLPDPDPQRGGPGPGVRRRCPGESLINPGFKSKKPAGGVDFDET
# UniProt P12956: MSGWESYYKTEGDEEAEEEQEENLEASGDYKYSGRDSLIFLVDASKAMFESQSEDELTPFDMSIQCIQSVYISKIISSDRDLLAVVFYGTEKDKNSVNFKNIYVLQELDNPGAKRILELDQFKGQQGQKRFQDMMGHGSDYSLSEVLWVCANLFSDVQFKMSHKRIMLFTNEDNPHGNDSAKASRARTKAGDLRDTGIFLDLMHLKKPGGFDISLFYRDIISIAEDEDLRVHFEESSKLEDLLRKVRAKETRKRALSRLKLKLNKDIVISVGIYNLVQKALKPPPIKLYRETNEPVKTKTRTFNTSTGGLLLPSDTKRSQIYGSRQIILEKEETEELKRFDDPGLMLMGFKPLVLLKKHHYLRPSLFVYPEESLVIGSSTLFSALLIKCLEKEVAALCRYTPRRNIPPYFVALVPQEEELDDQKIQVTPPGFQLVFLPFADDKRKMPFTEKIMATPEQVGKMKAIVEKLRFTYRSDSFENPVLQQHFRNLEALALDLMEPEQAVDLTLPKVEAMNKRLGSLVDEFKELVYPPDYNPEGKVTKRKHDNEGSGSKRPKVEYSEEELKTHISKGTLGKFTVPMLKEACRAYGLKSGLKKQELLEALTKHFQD
# UniProt P11387: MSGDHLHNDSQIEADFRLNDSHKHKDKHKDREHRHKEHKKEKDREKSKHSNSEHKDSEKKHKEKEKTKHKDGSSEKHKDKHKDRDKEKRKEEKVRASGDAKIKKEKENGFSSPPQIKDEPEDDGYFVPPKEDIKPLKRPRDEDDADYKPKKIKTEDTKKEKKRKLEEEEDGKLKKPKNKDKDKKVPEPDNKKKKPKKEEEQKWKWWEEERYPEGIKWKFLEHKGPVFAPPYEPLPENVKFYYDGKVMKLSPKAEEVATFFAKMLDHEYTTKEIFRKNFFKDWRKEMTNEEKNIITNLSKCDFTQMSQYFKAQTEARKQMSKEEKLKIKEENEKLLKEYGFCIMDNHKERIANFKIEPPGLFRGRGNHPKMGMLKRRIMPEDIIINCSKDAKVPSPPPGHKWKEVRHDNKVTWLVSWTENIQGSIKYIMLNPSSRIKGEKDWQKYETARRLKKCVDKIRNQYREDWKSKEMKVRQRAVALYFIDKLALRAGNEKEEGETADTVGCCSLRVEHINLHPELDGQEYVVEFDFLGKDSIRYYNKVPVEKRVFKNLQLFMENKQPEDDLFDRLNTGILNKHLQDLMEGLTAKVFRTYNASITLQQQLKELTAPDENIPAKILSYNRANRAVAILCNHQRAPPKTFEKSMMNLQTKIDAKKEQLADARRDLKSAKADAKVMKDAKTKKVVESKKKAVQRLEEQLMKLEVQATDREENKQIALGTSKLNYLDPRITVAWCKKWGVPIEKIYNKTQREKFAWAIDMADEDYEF
# UniProt Q13185: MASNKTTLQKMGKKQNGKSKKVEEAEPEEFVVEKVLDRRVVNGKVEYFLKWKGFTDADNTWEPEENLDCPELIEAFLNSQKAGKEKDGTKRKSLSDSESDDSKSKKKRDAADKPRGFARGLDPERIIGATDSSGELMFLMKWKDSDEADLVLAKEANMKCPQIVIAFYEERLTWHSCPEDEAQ
# Results are given in words; binding and its absence hold for the method and conditions named. Binding seen in cells or lysates may run through a third protein. Some entries that bind do so weakly or less than the wild type.
# Tests used:
# Test in all cases: co-IP; MCF7 whole cell extracts (20 mM Tris-Cl pH 8.0, 137 mM NaCl, 10% glycerol, 1% Nonidet P-40), sonicated, IP overnight at 4 °C with the indicated antibodies and protein G-Sepharose, five washes, western blot; E2-treated cells
# [1] = target: paralogues of XRCC4 and XLF (PAXX) (human (endogenous in MCF7)) (UniProt Q9BUH6)
# [2] = target: Ku70 (human (endogenous in MCF7)) (UniProt P12956)
# [3] = target: Topoisomerase I (Top1) in MCF7 cells (human (endogenous in MCF7)) (UniProt P11387)
binding [1],binding [2],binding [3],Substance
binds,–,–,Topoisomerase I (Top1) in MCF7 cells (from UniProt P11387 1-765) (enzyme)
–,binds,binds,heterochromatin protein 1 gamma (HP1γ) (from UniProt Q13185 1-183)
